{"source": "patent US5206415A", "about": "“Tricyclic steroid analogs” (priority 1991, dated 1993)", "origin": "cited, not measured here", "system": "GABAA receptors", "conditions": "cited from earlier work", "data": [{"smiles": "CC(=O)[C@H]1CC[C@H]2[C@@H]3CC[C@H]4C[C@H](O)CC[C@]4(C)[C@H]3C(=O)C[C@]12C", "note": "[alphaxalone]", "values": [{"measurement": "direct opening of Cl^- channels in the absence of GABA", "result": "open Cl^- channels directly in the absence of GABA"}]}]}
